Measurements from the supplement of paper PMC12889115.
Some of the results follow. These are raw signals, not scaled to a control.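 Primary screen: polymyxin B was added at a level permeabilizing Salmonella outer membranes while sparing inner membranes. DMSO wells, both with and without polymyxin B, established maximum growth. Plate-to-plate variation meant each plate was ranked on its own, and the lowest-OD600 compounds were selected as hits.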

Test system: Salmonella enterica serovar Typhimurium SL1344
Experiment: bacterial growth OD600 after 18 h with compound and polymyxin B; higher = more bacterial growth (less inhibition)
Conditions: 50 µM, Mueller-Hinton broth

Row | SMILES | bacterial growth OD600 (polymyxin B 1 µg/mL) | bacterial growth OD600 (polymyxin B 0.75 µg/mL)
1 | CN(Cc1cnccn1)C(=O)c1csc2nc(-c3cccc(C(F)(F)F)c3)cn12 | 1.13 | 
2 | CCOC(=O)CNC(=O)N1CCCC(C(=O)c2cccc(OC(C)C)c2)C1 (stereo unspecified) | 0.864 | 
3 | O=C(CCc1ccncc1)NC1CCCN(C2CCCCCC2)C1 (stereo unspecified) | 0.868 | 
4 | CC(C)Cc1ccc(CN2CCCC(NC(=O)c3ccc4c(c3)no[n+]4[O-])C2)cc1 (stereo unspecified) | 0.659 | 
5 | Cn1nccc1C(=O)N1CCc2[nH]nc(-c3ccc4c(c3)OCO4)c2C1 |  | 0.873
6 | O=C(CCCc1cccs1)N1CCOc2ccc(C(O)C(c3ccccc3)c3ccccc3)cc2C1 (stereo unspecified) |  | 0.012
7 | COC(=O)c1ccc(CNC2CCN(c3ccc(C(=O)NC4CCCC4)cc3)CC2)cc1 |  | 0.855
8 | O=C(CC1CC1)NC1CC(=O)N(Cc2ccccc2C(F)(F)F)C1 (stereo unspecified) | 0.891 | 
9 | COc1cc(F)ccc1CNCc1cccnc1N1CCOCC1 | 0.973 | 
10 | COCC(=O)Nc1cc(C(=O)N2C[C@@H](C)O[C@@H](C)C2)c2c(c1)ncn2Cc1ccc(F)cc1 |  | 0.839
11 | COc1ccc(CCCN2C(=O)O[C@@H]3CN(C4CCCC4)C[C@@H]32)cc1 | 0.903 | 
12 | c1nc(N2CCCC2)sc1CN1CCC2(CCCN(CC3CC3)C2)C1 (stereo unspecified) | 1.02 | 
13 | Cc1ccc(C(=O)Nc2ccc(N3CCC(NCCCc4ccncc4)CC3)cc2)c(C)c1 |  | 0.726
14 | CC1CN(Cc2ccc3nsnc3c2)Cc2cc(Cl)ccc2O1 (stereo unspecified) |  | 0.037
15 | Cc1nn(C)c(C)c1CN(C)c1ccc(C(=O)NCc2noc(C(C)C)n2)cn1 | 1.23 | 
16 | Cc1ncsc1CN(Cc1ccccc1)C(=O)C1CCC(=O)N(C2CC2)C1 (stereo unspecified) | 0.886 | 

An excerpt of these results, with tabs:
Row	SMILES	bacterial growth OD600 (polymyxin B 1 µg/mL)	bacterial growth OD600 (polymyxin B 0.75 µg/mL)
1	CN(Cc1cnccn1)C(=O)c1csc2nc(-c3cccc(C(F)(F)F)c3)cn12	1.13	
6	O=C(CCCc1cccs1)N1CCOc2ccc(C(O)C(c3ccccc3)c3ccccc3)cc2C1 (stereo unspecified)		0.012

Additional results follow:

Row | SMILES | bacterial growth OD600 (polymyxin B 1 µg/mL) | bacterial growth OD600 (polymyxin B 0.75 µg/mL)
17 | CCOC(=O)C1(CCCc2ccccc2)CCN(C(=O)CCn2cncn2)CC1 | 0.812 | 
18 | O=C(CCC(F)(F)F)N1CCc2[nH]nc(-c3ccc(F)c(F)c3)c2C1 |  | 0.949
19 | CCOCCCNC(=O)c1cc(NS(=O)(=O)N(C)C)cc2nc(CC(C)C)n(C)c12 |  | 0.922
20 | Cc1nc(C)c(CN2CC[C@@H](N3CCN(c4ccccn4)CC3)[C@H](O)C2)nc1C | 0.901 | 
21 | CCn1nc(C)cc1C(=O)N1CCC(C2CCN(CC(C)C)CC2)C1 (stereo unspecified) |  | 0.806
22 | O=C1CCC(C(=O)N2CCS(=O)(=O)CC2)CN1CCCc1ccccc1 (stereo unspecified) | 0.953 | 
23 | Cc1nc2ccc(C(=O)N(C)C3CCCN(Cc4ccccc4F)C3)cc2nc1C (stereo unspecified) | 0.895 | 
24 | COCCn1cc(C(=O)NCC2(c3ccccc3)CCCC2)c(=O)c(C(=O)N2CCCCC2)c1 |  | 0.8
25 | CCC(CC)C(=O)N1CCc2c(cnc(C)c2CNC(=O)c2ccoc2C)C1 |  | 0.797
26 | COc1ccccc1C(=O)N1CCC(CCC(=O)N2CCN(c3ccccc3)CC2)CC1 | 0.828 | 
27 | COc1ccccc1Oc1ncccc1CNC(=O)CN1CCCCC1 |  | 0.961
28 | COC(=O)c1ccccc1C(=O)N1CCCC(CCC(=O)NCc2ccccc2Cl)C1 (stereo unspecified) | 1.08 | 
29 | O=C(Nc1ccccc1Oc1cccnc1)C1CCCN1CC1CC1 (stereo unspecified) |  | 0.788
30 | COc1ccc(CNC(C)c2cnc(-c3ccncc3)nc2C)c(F)c1 (stereo unspecified) |  | 0.818
31 | NC(=O)C1(C(=O)N2CCCC(CCc3ccccc3C(F)(F)F)C2)CC1 (stereo unspecified) | 0.851 | 
